Test results from PubChem BioAssay AID2610 (Broad Institute, 2010).
This is one part of the list. Entries without a call are filed as inconclusive in the source.

Assay: BJeLR fibroblast growth inhibition, viability readout – cell-based, alamar blue fluorescence, 48 h, cherrypicked samples, dose response (AID 2610)
Conditions: at 13.3 µM (top of the series)

`N#Cc1ccc(-c2cccs2)nc1SCc1cccnc1` showed an activity, negative = growth loss of -68.9%.
